PubChem BioAssay AID504793 – Drosophila RNAi Screening Center | 2011
Purpose: 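Genes required for cells to halt at G2/M after double-strand DNA breaks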 (primary screen). Cells: Drosophila S2R+ cells. Reagents: long dsRNA against Drosophila genes, about 0.25 µg dsRNA per well. Duration: 4 days of dsRNA, then 4 hours of drug before read-out. Challenge: doxorubicin 0.5 µM for 4 hours to cause double-strand breaks, in cells also given a low, harmless dose of dsRNA against nbs to sensitise the assay. Detection: 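Per-well count of mitotic cells stained for phospho-histone H3 after doxorubicin exposure, used as mitotic index; counts are raw and not normalised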. Reading the numbers: mitotic cells: higher = more cells in mitosis, weaker G2 arrest. Call rule: 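Genes are called active only when high mitotic counts were reproduced with independent dsRNAs and mitosis was checked for delay without damage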. Meaning of the calls: active = confirmed in follow-up tests; inactive = not confirmed.
In all, the deposit lists about 23,000 reagents; below is an unselected part of those that have a named target and a result. Of all reagents, 62 (0.27%) were called active. 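Calls come from follow-up tests whose scores are not deposited, so confirmed genes may have low counts here; counts are not normalised per plate.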 The raw values are shown without normalisation. Entries without a mark were called inactive. Names joined by + are all predicted targets of the reagent.

mitotic cells, replicate 1 | mitotic cells, replicate 2 | Target gene | amplicon
1 | 14 | CG9568 | DRSC03265
9 | – | CG13578 | DRSC04214
14 | – | CG12426 | DRSC14516
5 | – | CG4975 + CG4984 | DRSC24817
9 | – | CG5002 | DRSC06911
4 | – | UGP + PGRP-LF | DRSC10418
3 | – | CG14120 | DRSC10124
7 | – | CG14120 | DRSC27955
7 | – | NK7.1 | DRSC25000
8 | – | Su(z)2 | DRSC22970
4 | – | cmet | DRSC03511
9 | – | CG43367 + CG32252 (retired record) | DRSC21715
9 | – | CG1896 | DRSC15397
8 | – | ArfGAP1 | DRSC11173
5 | – | Pc | DRSC24966
6 | – | CG14100 | DRSC10101
18 (active) | – | Pop2 | DRSC10537
8 | – | Pop2 | DRSC27971
5 | – | CG42404 | DRSC15558
6 | – | CG31827 + CG18478 | DRSC01958
18 | – | CG16710 | DRSC15136
11 | – | CG12689 | DRSC17879
5 | – | cora | DRSC07597
9 | – | cora | DRSC28125
3 | – | Ugt35E2 | DRSC16083
4 | – | Ugt35E2 | DRSC27356
9 | – | cta | DRSC03769
6 | – | CG2691 | DRSC19866
5 | – | CG34448 | DRSC26596
3 | – | CG5390 | DRSC02855
9 | – | CG5390 | DRSC27775
10 | – | cdm | DRSC16213
14 | – | CG4766 | DRSC17736
20 | – | CG42512 + CG32573 | DRSC19532
9 | – | CG42512 + CG32573 | DRSC19906
6 | – | CG42512 + CG32573 | DRSC22782
14 | – | CG3894 | DRSC01762
9 | – | CG3894 | DRSC04012
10 | – | CG3894 | DRSC04429
3 | – | CG14861 | DRSC14984
4 | – | CG33941 | DRSC37786
12 | – | CG33941 | DRSC39124
12 | – | CG33941 | DRSC39125

Part of the list above, reformatted:
cmet [DRSC03511]: mitotic cells, replicate 1 = 4
CG43367 + CG32252 (retired record) [DRSC21715]: mitotic cells, replicate 1 = 9
CG1896 [DRSC15397]: mitotic cells, replicate 1 = 9
ArfGAP1 [DRSC11173]: mitotic cells, replicate 1 = 8
Pc [DRSC24966]: mitotic cells, replicate 1 = 5
CG14100 [DRSC10101]: mitotic cells, replicate 1 = 6
Pop2 [DRSC10537]: mitotic cells, replicate 1 = 18 (active)
Pop2 [DRSC27971]: mitotic cells, replicate 1 = 8
CG42404 [DRSC15558]: mitotic cells, replicate 1 = 5
CG31827 + CG18478 [DRSC01958]: mitotic cells, replicate 1 = 6
CG16710 [DRSC15136]: mitotic cells, replicate 1 = 18
CG12689 [DRSC17879]: mitotic cells, replicate 1 = 11

Next entries follow:
mitotic cells, replicate 1 | mitotic cells, replicate 2 | Target gene | amplicon
13 | – | Cfp1 + CG17440 | DRSC29926
6 | – | CG3335 | DRSC10358
6 | – | CG3335 | DRSC29982
1 | – | CG7737 | DRSC07033
9 | – | CG4743 | DRSC15636
2 | – | Thor | DRSC00770
5 | – | CG32816 | DRSC17337
5 | – | CG6931 | DRSC10750
6 | – | Tango10 | DRSC19807
13 | – | Tango10 | DRSC26535
9 | – | CG14247 | DRSC14742
4 | – | CG14247 | DRSC24048
13 | – | CG12992 | DRSC19512
6 | – | CG40486 | DRSC20619
6 | – | ChT | DRSC16296
9 | – | CG4968 | DRSC02794
13 | – | CG4968 | DRSC29740
5 | – | Apc2 | DRSC14115
7 | – | CG12106 | DRSC17805
5 | – | MsR2 + CG13802 (retired record) | DRSC08336
10 | – | MsR2 + CG13802 (retired record) | DRSC08337
12 | – | MsR2 + CG13802 (retired record) | DRSC22440
6 | – | MsR2 + CG13802 (retired record) | DRSC26863
8 | – | CG15629 | DRSC00464
2 | – | CG15629 | DRSC29518
4 | – | CG17742 (retired record) | DRSC25787
7 | – | Kpc2 | DRSC07635
3 | – | CG10764 | DRSC06000
5 | – | CG10214 | DRSC14213
5 | – | CG7420 | DRSC00704
6 | – | CG32821 (retired record) | DRSC22544
9 | – | CG31436 | DRSC14661
10 | – | CG31436 | DRSC24566
